Laboratory results published in ChEMBL document CHEMBL1151628, “Antibacterial constituents of the diatom Navicula delognei” (1984).

Tested on: Escherichia coli
Test: Antimicrobial activity against Escherichia coli ATCC 25922 at 0.1 mg/disk by disk diffusion assay
Type: functional

CC1(C)S[C@@H]2[C@H](NC(=O)[C@H](N)c3ccccc3)C(=O)N2[C@H]1C(=O)O [AMPICILLIN]
inhibition zone (IZ): >4 mm
